Measurements reported in publication PMC11200088.
No constants are given. Whether binding was seen depends on the method and setting. In cells and extracts the contact can be indirect. Some results given as binding are weak or reduced against the parent protein; the word gives no strength.

Sequences of proteins named here, by UniProt entry; tags and fusion partners are left off. Residues count along the entry.
UniProt P22626: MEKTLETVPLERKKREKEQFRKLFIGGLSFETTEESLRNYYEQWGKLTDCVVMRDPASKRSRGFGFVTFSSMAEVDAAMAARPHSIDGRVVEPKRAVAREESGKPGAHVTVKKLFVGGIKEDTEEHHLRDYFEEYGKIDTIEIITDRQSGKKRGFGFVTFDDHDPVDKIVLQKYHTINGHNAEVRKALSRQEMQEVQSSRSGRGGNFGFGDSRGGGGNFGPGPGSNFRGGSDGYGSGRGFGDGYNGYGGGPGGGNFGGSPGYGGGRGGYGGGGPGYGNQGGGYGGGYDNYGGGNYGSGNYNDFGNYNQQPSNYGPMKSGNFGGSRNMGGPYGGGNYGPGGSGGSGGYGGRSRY
UniProt P05161, residues 1-157: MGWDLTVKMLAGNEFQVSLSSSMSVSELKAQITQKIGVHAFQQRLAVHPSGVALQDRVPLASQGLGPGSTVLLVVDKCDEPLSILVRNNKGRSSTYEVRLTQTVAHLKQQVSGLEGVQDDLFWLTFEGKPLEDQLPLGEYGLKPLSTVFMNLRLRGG

Molecular target: heterogeneous nuclear ribonucleoprotein A2/B1 (hnRNPA2B1) (human (endogenous in breast cancer cell lines)) (UniProt P22626)
Experiment: co-IP; endogenous proteins in lysates of hypoxic (1% O2) breast cancer cells; antibodies and Protein A/G beads overnight at 4 °C, Western blot; lysis buffer S (20 mM sodium phosphate pH 7.4, 150 mM NaCl, 1% SDS, 1% Triton, 0.5% sodium deoxycholate), boiled 10 min; for ISG15 with hnRNPA2B1 also after ectopic PCAT6 expression (more binding) or PCAT6 knock-down (less binding)

## interferon-stimulated gene 15 (ISG15) (from UniProt P05161 1-157)
  binding: binds
